Reference: PubChem BioAssay AID743454 (Peter MacCallum Cancer Centre, 2014)

- Aim: 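Search for knock-downs that restore vorinostat killing in resistant colon cancer cells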 (primary screen)
- System: human HCT116-VR colon cancer cells, selected for vorinostat resistance
- Reagent: siRNA pool against human genes, 40 nM siRNA pool
- Timing: vorinostat for 24 h, read-out about 72 h after transfection
- Challenge: vorinostat at 2.5 µM final
- Measured: 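Two measures, CellTiter-Fluor viability and luminescent caspase 3/7 activity, each as fold change against same-plate mock wells, mean of duplicates, then screen-wide robust z-score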
- Scale: viability robust z-score: higher = more viable cells than screen typical; caspase robust z-score: higher = more caspase 3/7 activity than screen typical
- Rule for the call: 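Hits are knock-downs in viability class RV1/RV2 or caspase class CA1/CA2, excluding ones that killed cells in the no-drug cell-count arm; hits then retested with single siRNAs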
The deposit covers about 18,000 reagents; below is a part drawn at random. 450 of them (2.5%) were called active. 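Single biological run; no consistent viability z cut-off exists, so the class columns, not z-scores, define the calls.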 A number with no mark means an inactive call.

Gene | viability hit class | caspase hit class | viability robust z-score | caspase robust z-score
ETF1 | no change | no change | -2.67 | -0.29
APOBEC1 | no change | no change | 0.7 | 0.28
NKTR | no change | no change | 0.78 | -0.82
RPL23AP82 | RV2 (reduced viability) (active) | no change | -4.53 | -0.42
OR6N2 | no change | no change | 0.26 | 0.45
IQGAP2 | no change | no change | 0.18 | -0.51
ZNF205 | no change | no change | 0.08 | 0.87
FAM89B | no change | no change | -1.15 | -0.57
KDM8 | no change | no change | -2.16 | -1.13
SOX5 | no change | no change | -0.76 | 0.44
IFI35 | no change | no change | 0.84 | -0.28
ZNF746 | no change | no change | 0.28 | 0.44
UNG | no change | no change | 0.8 | 0.44
SNRPG | no change | no change | -3.72 | -1.42
FAM217A | no change | no change | 0.68 | 0.27
HNRNPK | RV2 (reduced viability) (active) | no change | -3.04 | 3.7
TMEM45A | no change | no change | 0.13 | 1.29
NOP14 | no change | no change | -1.52 | 2.38
THOC7 | no change | no change | 0.04 | 4.02
MACROD1 | no change | no change | 1.77 | -0.88
CDS2 | no change | no change | -0.85 | -0.52
MESP2 | no change | no change | -1.22 | 1
STK32C | no change | no change | 1.34 | -0.22
UPF3A | no change | no change | 0.32 | -0.7
CD151 | no change | no change | 1.66 | 0.26
RLN3 | no change (active) | CA1 (caspase activation) | -0.6 | 9.17
ABCA5 | no change | no change | 0.92 | -0.12
ATG4A | no change | no change | 0.72 | -1.01
OR2Z1 | no change | no change | -0.73 | -0.86
CLDN11 | no change | no change | 1.16 | -0.16
KLF1 | no change | no change | -0.29 | -0.3
C8orf74 | no change | no change | 0.32 | 1.68
AATF | no change | no change | -1.22 | -0.8
MLF1 | no change | no change | -0.02 | 2.9
RAB9A | no change | no change | 0.39 | -0.48
SYT16 | no change | no change | 0.08 | -0.4
PYCR1 | no change | no change | 0.8 | -0.02
ZNF750 | no change | no change | -0.24 | -0.11
IK | no change | no change | -4.72 | 4.38
MED9 | no change | no change | -0.48 | -0.02
ACTR6 | no change | no change | 0.79 | -0.45
DCD | no change | no change | -1.88 | 0.86
LENEP | no change | no change | -0.68 | 1.46
EIF1B | no change | no change | 1.53 | 0.37
ABCA1 | no change | no change | 0.77 | -0.08
HSD17B10 | no change | no change | -0.36 | 1.38
CPA3 | no change | no change | 0.76 | -0.86
ACKR5 | no change | no change | -1.09 | -1.14
SLC9A6 | no change | no change | 0.4 | -1.1
TLR7 | no change | no change | -0.82 | -1.13
CCDC171 | no change | no change | 0.62 | 0.49
SIRPG | no change | no change | 1.34 | 0.44
INIP | no change | no change | 0.52 | 0.64
MAGEE2 | no change | no change | 1.12 | 0.14
RDH10 | no change | no change | 0.83 | -0.56
TRPC4AP | no change | no change | 1.07 | -0.44
KLF15 | no change | no change | -0.42 | 1.11

Copied from the entries so far (8 entries):
Gene | viability hit class | caspase hit class | viability robust z-score | caspase robust z-score
SNRPG | no change | no change | -3.72 | -1.42
FAM217A | no change | no change | 0.68 | 0.27
HNRNPK | RV2 (reduced viability) (active) | no change | -3.04 | 3.7
TMEM45A | no change | no change | 0.13 | 1.29
NOP14 | no change | no change | -1.52 | 2.38
THOC7 | no change | no change | 0.04 | 4.02
MACROD1 | no change | no change | 1.77 | -0.88
CDS2 | no change | no change | -0.85 | -0.52
